Laboratory results as given in PubChem BioAssay AID192 (DTP/NCI, 2004).
The list shows only some results of the screen, not a fair sample: it is rich in T/C values a quarter to a half above the control, in often repeated tests (any T/C) and in doses without a T/C. Further doses and runs are listed elsewhere. T/C is the treated group as % of the vehicle group. Some doses have a count of surviving animals in place of a T/C: the source holds a T/C of zero for them, seemingly a mark for toxic or unscored doses. Some doses without a T/C left all or most animals alive at the check, yet need not have been tolerated: survival well below the control is almost never listed, so the zero probably covers shortened survival too. Survivors were counted at the toxicity check, usually on the fifth day, unless a day is given; later deaths do not show. Schedule codes are those of the source, read here as Q, the interval in days (D) or hours (H), X, the number of doses. Counts like (3×) count equal records among those shown. Some doses were run more than once; the results are listed from low to high. For survival time, this PubChem deposit counts one and a half times the control or more as active, and values a quarter to a half above the control carry no call in these data; other NCI protocols may use other cut-offs. Some T/C values carry the count of animals alive at the toxicity check (mostly the fifth day); where none is given, no animal had died by that day.

Tested on: BDF1 mice, B16 melanoma ip, median survival T/C
Assay: NCI In Vivo Anticancer Drug Screen. Data for tumor model B16 Melanoma (intraperitoneal) in B6D2F1 (BDF1) mice
Conditions: T/C endpoint: median survival time, higher T/C = longer survival
How it was run: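 Vehicle-treated animals serve as the reference (C); treated animals (T) are scored for survival or tumor size after tumor transplantation.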

[1] = dose: 2.0 mg/kg/injection, schedule: Q01DX009 (ip), vehicle: Klucel (hydroxypropylcellulose) (HPC)
[2] = dose: 4.0 mg/kg/injection, schedule: Q01DX009 (ip), vehicle: Klucel (hydroxypropylcellulose) (HPC)
[3] = dose: 4.0 mg/kg/injection, schedule: Q01DX009 (ip), vehicle: saline with Tween-80
[4] = dose: 8.0 mg/kg/injection, schedule: Q01DX009 (ip), vehicle: sodium bicarbonate

CN(Cc1cnc2nc(N)nc(N)c2n1)c1ccc(C(=O)N[C@@H](CCC(=O)O)C(=O)O)cc1
T/C (dose: 0.5 mg/kg/injection, schedule: Q01DX009 (ip), vehicle: Klucel (hydroxypropylcellulose) (HPC)): 86, 94, 96, 97, 100, 102, 110, 111 % of control
T/C (dose: 0.5 mg/kg/injection, schedule: Q01DX009 (ip), vehicle: saline with Tween-80, evaluated on day 45): 95 % of control
T/C (dose: 0.5 mg/kg/injection, schedule: Q01DX009 (ip), vehicle: saline with Tween-80, evaluated on day 60): 100, 104, 111 % of control
T/C (dose: 0.5 mg/kg/injection, schedule: Q01DX009 (ip), vehicle: saline, evaluated on day 50): 87 and 107 % of control
T/C (dose: 0.5 mg/kg/injection, schedule: Q01DX009 (ip), vehicle: saline, evaluated on day 60): 93, 94 [5 of 6 alive], 97 (3×), 100 (2×), 102 (3×), 102 [5 of 6 alive], 104 (2×), 107, 108, 117, 118 % of control
survivor count (dose: 0.5 mg/kg/injection, schedule: Q01DX009 (ip), vehicle: saline): 6 of 6
T/C (dose: 1.0 mg/kg/injection, schedule: Q01DX009 (ip), vehicle: Klucel (hydroxypropylcellulose) (HPC)): 88, 94 (2×), 102, 106, 108, 108 [5 of 6 alive], 109 % of control
T/C (dose: 1.0 mg/kg/injection, schedule: Q01DX009 (ip), vehicle: saline with Tween-80, evaluated on day 45): 100 % of control
T/C (dose: 1.0 mg/kg/injection, schedule: Q01DX009 (ip), vehicle: saline with Tween-80, evaluated on day 60): 102 (2×) and 111 % of control
T/C (dose: 1.0 mg/kg/injection, schedule: Q01DX009 (ip), vehicle: saline, evaluated on day 50): 95 and 105 % of control
T/C (dose: 1.0 mg/kg/injection, schedule: Q01DX009 (ip), vehicle: saline, evaluated on day 60): 88, 90, 93, 94, 97 (2×), 97 [5 of 6 alive], 100 (2×), 100 [5 of 6 alive], 102 (3×), 105, 110 % of control (3×)
survivor count (dose: 1.0 mg/kg/injection, schedule: Q01DX009 (ip), vehicle: saline): 3 of 6
T/C (dose: 1.0 mg/kg/injection, schedule: Q01DX009 (ip), vehicle: sodium bicarbonate, evaluated on day 5): 100 % of control
T/C (dose: 1.0 mg/kg/injection, schedule: Q01DX009 (ip), vehicle: sodium bicarbonate, evaluated on day 60): 90, 98 (2×), 98 [9 of 10 alive], 102 (2×), 108, 109 % of control (2×)
T/C (dose: 1.0 mg/kg/injection, schedule: Q01DX009 (ip), vehicle: sodium bicarbonate, evaluated on day 90): 100 % of control
T/C [1]: 91, 102, 103, 106, 111 (2×), 113 % of control
survivor count [1]: 6 of 6
T/C (dose: 2.0 mg/kg/injection, schedule: Q01DX009 (ip), vehicle: saline with Tween-80, evaluated on day 45): 100 % of control
T/C (dose: 2.0 mg/kg/injection, schedule: Q01DX009 (ip), vehicle: saline with Tween-80, evaluated on day 60): 88, 95, 108 % of control
T/C (dose: 2.0 mg/kg/injection, schedule: Q01DX009 (ip), vehicle: saline, evaluated on day 50): 92 % of control (2×)
T/C (dose: 2.0 mg/kg/injection, schedule: Q01DX009 (ip), vehicle: saline, evaluated on day 60): 87, 91, 92, 95, 97 (3×), 100, 104 (3×), 110, 112, 113, 117, 121, 122 % of control
survivor count (dose: 2.0 mg/kg/injection, schedule: Q01DX009 (ip), vehicle: saline): 3 of 6
T/C (dose: 2.0 mg/kg/injection, schedule: Q01DX009 (ip), vehicle: sodium bicarbonate, evaluated on day 5): 97 % of control
T/C (dose: 2.0 mg/kg/injection, schedule: Q01DX009 (ip), vehicle: sodium bicarbonate, evaluated on day 60): 90, 92, 95, 97, 102, 105, 106, 111 % of control
T/C (dose: 2.0 mg/kg/injection, schedule: Q01DX009 (ip), vehicle: sodium bicarbonate, evaluated on day 90): 97 % of control
survivor count (dose: 2.0 mg/kg/injection, schedule: Q01DX009 (ip), vehicle: sodium bicarbonate): 10 of 10
survivor count (dose: 3.0 mg/kg/injection, schedule: Q01DX009 (ip), vehicle: saline): 6 of 6
T/C [2]: 86, 91, 97, 102 (2×), 103 % of control
survivor count [2]: 6 of 6
T/C [3]: 102 and 104 % of control
survivor count [3]: 6 of 6 (2×)
T/C (dose: 4.0 mg/kg/injection, schedule: Q01DX009 (ip), vehicle: saline, evaluated on day 50): 92 and 95 % of control
T/C (dose: 4.0 mg/kg/injection, schedule: Q01DX009 (ip), vehicle: saline, evaluated on day 60): 86, 88, 89, 92, 97 (2×), 100, 102, 102 [5 of 6 alive], 105 % of control
survivor count (dose: 4.0 mg/kg/injection, schedule: Q01DX009 (ip), vehicle: saline): 6 of 6
T/C (dose: 4.0 mg/kg/injection, schedule: Q01DX009 (ip), vehicle: sodium bicarbonate, evaluated on day 5): 32 % of control
T/C (dose: 4.0 mg/kg/injection, schedule: Q01DX009 (ip), vehicle: sodium bicarbonate, evaluated on day 60): 91, 93, 95, 97, 101, 109, 114 % of control
survivor count (dose: 4.0 mg/kg/injection, schedule: Q01DX009 (ip), vehicle: sodium bicarbonate): 9 of 10 and 10 of 10
survivor count (dose: 6.0 mg/kg/injection, schedule: Q01DX009 (ip), vehicle: saline): 5 of 6
survivor count (dose: 6.0 mg/kg/injection, schedule: Q01DX009 (ip), vehicle: sodium bicarbonate): 10 of 10
T/C [4]: 90 % of control
survivor count [4]: 8 of 10, 9 of 10, 10 of 10
survivor count (dose: 12.0 mg/kg/injection, schedule: Q01DX009 (ip), vehicle: sodium bicarbonate): 8 of 10 and 10 of 10
T/C (dose: 16.0 mg/kg/injection, schedule: Q01DX001 (ip), vehicle: saline): 126 % of control
survivor count (dose: 16.0 mg/kg/injection, schedule: Q01DX009 (ip), vehicle: sodium bicarbonate): 3 of 10, 7 of 10, 8 of 10, 9 of 10, 10 of 10
T/C (dose: 64.0 mg/kg/injection, schedule: Q01DX001 (ip), vehicle: saline): 128 % of control

C=CCOP(=O)(OCC=C)OCC=C
survivor count (dose: 12.5 mg/kg/injection, schedule: Q01DX009 (ip), vehicle: Klucel (hydroxypropylcellulose) (HPC)): 5 of 6

O=C(O)CCC1CCCCC1=O (configuration not stated)
T/C (dose: 100.0 mg/kg/injection, schedule: Q01DX009 (ip), vehicle: Klucel (hydroxypropylcellulose) (HPC)): 132 % of control
